Reference: patent US20210071256A1, “SYSTEMS AND METHODS FOR PAIRWISE INFERENCE OF DRUG-GENE INTERACTION NETWORKS” (Recursion Pharmaceuticals, Inc., priority 2019, published 2021)
At least one structure is not confirmed: it was looked up by name or label, or the drawing left a doubt.

Test system: VEGF gene
Experiment: Phenomic (modified cell painting) gene-drug interaction test, two-way ANOVA on principal components, anti-VEGF siRNA
Type: cell-based, mammalian
Conditions: any of principal components P0, P1, P2, or P3

`N#CC[C@H](C1CCCC1)n1cc(-c2ncnc3[nH]ccc23)cn1` [JAK inhibitor, ruxolitinib] was tested, and the “interaction with the anti-VEGF siRNA, in words” value was “no statistically significant interaction”.
